{"source": "patent US12624012B2", "about": "“14-chloro-β-elemene nitric oxide donor derivative and preparation method and use thereof” (HANGZHOU NORMAL UNIVERSITY, priority 2021, dated 2026)", "assay": "In vitro NO release test (incubation with L-cysteine, OD at 550 nm)", "settings": "100 μM solution with cysteine solution, 37° C.", "experimental": "• (1) Sodium nitrite solutions with different concentrations were prepared. A calibration curve was drawn. • (2) The sample was treated. A 100 μM solution was prepared. 2.5 mL of the prepared compound solution and 2.5 mL of the cysteine solution were taken and incubated at 37° C. for 120 min, and the resulting mixture was sampled at different time points. • (3) A blank hole and a standard hole were set. 160 μL of the sample was collected and mixed evenly with 0.08 mL of a developer and stood at 37° C. for 15 min. At λ=550 nm, the OD value of absorbance was measured by the enzyme marker. The NO release levels were obtained by substituting the value into the standard curve.", "note": "At least one compound was matched to its structure with a doubt left."}
{"smiles": "C=C[C@]1(C)CC[C@@H](C(=C)CN(CCOC(=O)CCC(=O)OCC#CCOc2no[n+]([O-])c2S(=O)(=O)c2ccccc2)C(C)C)C[C@H]1C(=C)CCl", "note": "[Example 7, 4-((4-((4-(2-((2-((1R,3R,4S)-3-(3-chloroprop-1-en-2-yl)-4-methyl-4-vinylcyclohexyl)allyl)(isopropyl)amino)ethyoxyl)-4-oxobutanoyl)oxy)but-2-yn-1-yl)oxy)-3-(phenylsulfonyl)-1,2,5-oxadiazole 2-oxide]", "values": [{"measurement": "NO-release concentrations", "setting": "5 min", "value": 5.68, "unit": "µM"}, {"measurement": "NO-release concentrations", "setting": "10 min", "value": 7.17, "unit": "µM"}, {"measurement": "NO-release concentrations", "setting": "20 min", "value": 9.55, "unit": "µM"}, {"measurement": "NO-release concentrations", "setting": "30 min", "value": 9.04, "unit": "µM"}, {"measurement": "NO-release concentrations", "setting": "60 min", "value": 20.74, "unit": "µM"}, {"measurement": "NO-release concentrations", "setting": "90 min", "value": 30.04, "unit": "µM"}, {"measurement": "NO-release concentrations", "setting": "120 min", "value": 40.44, "unit": "µM"}]}
